In publication doi:10.1101/691097:
Where cells or extracts were used, other partners may take part. For some of these results: A negative result means that nothing was seen under these conditions. For some of these results: Tags and fusion partners may be left off the protein sequences shown. For some of these results: Construct, isoform or probe ends are uncertain for at least one entry.

Assays:
Experiment in all cases: EMSA
Settings in all cases: protein in a lysate after overexpression
[1] = target: T1, FLAG-Aq-Cterm (Amphimedon queenslandica) (UniProt A0AAN0I883)
T1 sequence (looked up, limits assumed): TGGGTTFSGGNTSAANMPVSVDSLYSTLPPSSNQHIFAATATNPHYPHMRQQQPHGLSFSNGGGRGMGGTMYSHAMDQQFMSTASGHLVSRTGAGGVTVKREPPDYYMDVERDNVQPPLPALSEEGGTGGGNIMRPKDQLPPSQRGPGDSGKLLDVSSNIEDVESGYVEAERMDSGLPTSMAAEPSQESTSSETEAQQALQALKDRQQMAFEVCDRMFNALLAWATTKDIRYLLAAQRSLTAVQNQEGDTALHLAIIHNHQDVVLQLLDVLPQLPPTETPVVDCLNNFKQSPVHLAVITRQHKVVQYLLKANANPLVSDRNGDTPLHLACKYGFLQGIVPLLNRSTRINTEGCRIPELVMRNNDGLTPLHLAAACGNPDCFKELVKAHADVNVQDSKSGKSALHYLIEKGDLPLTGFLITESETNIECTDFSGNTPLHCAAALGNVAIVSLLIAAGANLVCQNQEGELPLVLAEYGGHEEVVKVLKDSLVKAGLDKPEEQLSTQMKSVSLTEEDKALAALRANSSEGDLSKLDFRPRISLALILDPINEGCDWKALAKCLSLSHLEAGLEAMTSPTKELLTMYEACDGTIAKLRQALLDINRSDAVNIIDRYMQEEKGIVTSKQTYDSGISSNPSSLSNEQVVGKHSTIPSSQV

[2] = tested on: FLAG-Nv-NF-kB (Nematostella vectensis)
[3] = target: T2, FLAG-Aq-RHD (Amphimedon queenslandica) (UniProt A0AAN0I883)
T2 sequence (looked up, limits assumed): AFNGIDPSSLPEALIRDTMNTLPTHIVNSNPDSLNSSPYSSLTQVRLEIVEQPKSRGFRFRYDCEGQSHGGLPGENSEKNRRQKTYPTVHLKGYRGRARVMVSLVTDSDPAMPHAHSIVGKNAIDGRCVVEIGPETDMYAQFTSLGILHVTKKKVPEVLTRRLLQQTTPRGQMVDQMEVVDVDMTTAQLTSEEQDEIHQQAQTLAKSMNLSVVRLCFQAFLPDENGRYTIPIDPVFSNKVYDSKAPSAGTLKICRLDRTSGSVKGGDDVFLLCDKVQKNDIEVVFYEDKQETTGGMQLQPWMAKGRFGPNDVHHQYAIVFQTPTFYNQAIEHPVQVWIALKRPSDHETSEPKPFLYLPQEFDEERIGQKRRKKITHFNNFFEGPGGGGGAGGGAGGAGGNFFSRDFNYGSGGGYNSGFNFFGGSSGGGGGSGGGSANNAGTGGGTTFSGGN

[4] = target: T3, FLAG-Aq-NF-kB (full length) (Amphimedon queenslandica) (UniProt A0AAN0I883)
T3 sequence (looked up, limits assumed): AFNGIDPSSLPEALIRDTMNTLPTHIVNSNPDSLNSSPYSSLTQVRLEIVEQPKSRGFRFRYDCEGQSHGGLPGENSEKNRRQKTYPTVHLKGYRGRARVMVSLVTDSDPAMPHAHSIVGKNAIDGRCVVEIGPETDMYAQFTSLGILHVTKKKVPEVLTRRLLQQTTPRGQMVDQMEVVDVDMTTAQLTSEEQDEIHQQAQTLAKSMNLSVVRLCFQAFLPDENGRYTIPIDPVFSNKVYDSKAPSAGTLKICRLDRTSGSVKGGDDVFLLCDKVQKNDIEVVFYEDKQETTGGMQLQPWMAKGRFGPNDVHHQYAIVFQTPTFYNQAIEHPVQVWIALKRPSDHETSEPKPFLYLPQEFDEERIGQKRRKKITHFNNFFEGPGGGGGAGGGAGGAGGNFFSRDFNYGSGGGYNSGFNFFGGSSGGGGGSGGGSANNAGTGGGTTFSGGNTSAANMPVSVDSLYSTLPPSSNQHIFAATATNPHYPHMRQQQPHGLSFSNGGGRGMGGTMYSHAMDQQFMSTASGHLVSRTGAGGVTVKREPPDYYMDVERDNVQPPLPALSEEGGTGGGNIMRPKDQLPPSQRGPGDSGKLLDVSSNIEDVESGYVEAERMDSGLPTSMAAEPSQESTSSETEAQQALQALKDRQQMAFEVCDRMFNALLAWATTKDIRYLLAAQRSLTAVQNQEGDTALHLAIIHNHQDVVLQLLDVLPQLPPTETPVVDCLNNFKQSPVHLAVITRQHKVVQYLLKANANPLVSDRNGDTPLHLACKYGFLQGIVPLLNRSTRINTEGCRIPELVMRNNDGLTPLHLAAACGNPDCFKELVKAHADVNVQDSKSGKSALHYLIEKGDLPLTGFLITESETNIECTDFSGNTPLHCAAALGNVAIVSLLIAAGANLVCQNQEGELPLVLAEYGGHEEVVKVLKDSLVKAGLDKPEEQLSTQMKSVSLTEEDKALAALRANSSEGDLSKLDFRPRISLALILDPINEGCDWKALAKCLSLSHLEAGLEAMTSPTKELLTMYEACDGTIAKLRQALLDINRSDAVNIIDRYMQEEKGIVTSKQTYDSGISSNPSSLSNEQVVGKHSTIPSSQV

## TCGAGAGGTCGGGGAATTCCCCCCCCG / TCGACGGGGGGGGAATTCCCCGACCTC [NF-kB-Consensus kB-site probe]
[1]
  binding result: no binding
[2]
  binding result: binds
[3]
  binding result: binds
[4]
  binding result: binds
